Laboratory results reported in paper PMC5308003.
Tags and fusion partners may be left off the protein sequences shown.

Target: T1, 6His-OxyR-Like (Magnetospirillum gryphiswaldense MSR-1) (UniProt V6F1S1)
T1 sequence (looked up): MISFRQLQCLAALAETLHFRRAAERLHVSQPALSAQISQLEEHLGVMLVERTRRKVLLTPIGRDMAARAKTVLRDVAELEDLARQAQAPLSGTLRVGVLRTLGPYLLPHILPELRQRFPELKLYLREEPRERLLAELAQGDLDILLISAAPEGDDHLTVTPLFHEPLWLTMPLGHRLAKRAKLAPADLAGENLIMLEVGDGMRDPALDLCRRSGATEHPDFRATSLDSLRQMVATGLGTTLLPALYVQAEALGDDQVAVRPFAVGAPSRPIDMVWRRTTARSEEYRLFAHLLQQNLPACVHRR
Test: DNase I footprinting
Settings: footprinting: 1000 ng labeled DNA, 25 uL, 25 C 30 min, DNase I 0.1 U at 37 C; salt and pH not stated; recombinant protein; residues 1-303; protein details: N-terminal 6xHis (pET-28a); label: fluorescent label; probe letters rebuilt from the primers and the genome

Row | Sequence | binding result
1 | ATCTCCGCCGACTTGGCTTTGCGCTTGGACGTGGTCGCCATGGTTCCTCCCAGGGCAGGATGATGTGAGTGCGTAGACAGATAGGTAAACCAACCTTCCCTTTTAGGCAAGGCGTTTCGCCGTCAAAAATGCTTATATTGCAATGCAATAATGGCAATTAACTGGATAATAGTTATTTATCAAAACCTAACCAGATGGGCGGGCAACGGGTGGTGCGATGCAGCAATCCTTTTGCCTCATCGGGTTAGCGCCTGACAGGGATATTGGGAGCGGGCAAACACTTGAAAACCCACCCGGCGGACAAAATCGCGCCAACCGGTCCATTTCACAATGCACCCATTCAGAGCAAACGCATGACAACAAAGCAAACAAGACTACCATGAACACAGAACCCGCCCA (double strand) [pdh promoter footprinting fragment] | binds
2 | CCAGATGCTCTTCCAGTTGGGAGATTTGCGCCGACAGGGCCGGCTGCGACACGTGCAGCCGCTCGGCCGCACGGCGAAAGTGCAGGGTTTCGGCCAGGGCGGCCAGGCATTGTAATTGGCGAAAGCTGATCATGGATCACTGATAACAATTTACTATCAATATCTCAAGATATATCGATTAGAATTATCACAAAGAAGGGGGCATAGTCTCAATCACGGACAACAGCCTAATGGAGACGACGATGTCCATTCTTCGCCCCGCTTCGGATACCGCCAGCGCCTATTACAAGGCCATGCGCGAGACCGCCTTGCTGTCGGGAGAAGACGAGGCGGAGCTGATCCGCCGTTGGAAGGACGAAGGTGACGAGA (double strand) [oxyR-Like promoter footprinting fragment] | binds
